The other results are listed elsewhere or left out.
What was measured:
Assay in all cases: glycan array binding signal (z-score within array); higher = stronger binding
Settings in all cases: glycan notation: IUPAC condensed, linker removed
[1] = biological target: Fuc(a1-2)Gal
In short: (§1)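 Arrays were curated from the Consortium for Functional Glycomics database, 3228 in total, and kept only where the protein sequence was available. Binding is expressed as a within-array Z-score. This score was averaged across arrays of the same protein sequence at different concentrations or buffers and across linkers, and negative values can be read as non-binding.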

[2] = biological target: Fuc(a1-2)Gal(b1-3)GalNAc
In short: as §1

[3] = biological target: Fuc(a1-2)Gal(b1-3)GalNAc(a1-3)[Fuc(a1-2)]Gal(b1-4)Glc
In short: as §1

[4] = biological target: Fuc(a1-2)Gal(b1-3)GalNAc(a1-3)[Fuc(a1-2)]Gal(b1-4)GlcNAc
In short: as §1

[5] = biological target: Fuc(a1-2)Gal(b1-3)GalNAc(b1-3)Gal
In short: as §1

[6] = biological target: Fuc(a1-2)Gal(b1-3)GalNAc(b1-3)Gal(a1-4)Gal(b1-4)Glc
In short: as §1

[7] = biological target: Fuc(a1-2)Gal(b1-3)GalNAc(b1-4)[Neu5Ac(a2-3)]Gal(b1-4)Glc
In short: as §1

[8] = biological target: Fuc(a1-2)Gal(b1-3)GlcNAc
In short: as §1

[9] = biological target: Fuc(a1-2)Gal(b1-3)GlcNAc(b1-2)Man(a1-3)[Fuc(a1-2)Gal(b1-3)GlcNAc(b1-2)Man(a1-6)]Man(b1-4)GlcNAc(b1-4)GlcNAc
In short: as §1

[10] = biological target: Fuc(a1-2)Gal(b1-3)GlcNAc(b1-2)Man(a1-3)[Fuc(a1-2)Gal(b1-3)GlcNAc(b1-2)Man(a1-6)]Man(b1-4)GlcNAc(b1-4)[Fuc(a1-6)]GlcNAc
In short: as §1

[11] = biological target: Fuc(a1-2)Gal(b1-3)GlcNAc(b1-3)Gal(b1-4)Glc
In short: as §1

[12] = biological target: Fuc(a1-2)Gal(b1-3)GlcNAc(b1-3)GalNAc
In short: as §1

[13] = biological target: Fuc(a1-2)Gal(b1-3)GlcNAc(b1-3)[Fuc(a1-2)Gal(b1-3)GlcNAc(b1-6)]GalNAc
In short: as §1

[14] = biological target: Fuc(a1-2)Gal(b1-3)GlcNAc(b1-3)[Gal(b1-4)GlcNAc(b1-6)]Gal(b1-4)Glc
In short: as §1

[15] = biological target: Fuc(a1-2)Gal(b1-3)GlcNAc(b1-3)[Neu5Ac(a2-6)Gal(b1-4)GlcNAc(b1-6)]Gal(b1-4)Glc
In short: as §1

[16] = biological target: Fuc(a1-2)Gal(b1-3)GlcNAc6S
In short: as §1

[17] = biological target: Fuc(a1-2)Gal(b1-3)[Fuc(a1-4)]GlcNAc
In short: as §1

[18] = biological target: Fuc(a1-2)Gal(b1-3)[Fuc(a1-4)]GlcNAc(b1-2)Man(a1-3)[Fuc(a1-2)Gal(b1-3)[Fuc(a1-4)]GlcNAc(b1-2)Man(a1-3)]Man(b1-4)GlcNAc(b1-4)GlcNAc
In short: as §1

[19] = biological target: Fuc(a1-2)Gal(b1-3)[Fuc(a1-4)]GlcNAc(b1-2)Man(a1-3)[Fuc(a1-2)Gal(b1-3)[Fuc(a1-4)]GlcNAc(b1-2)Man(a1-6)]Man(b1-4)GlcNAc(b1-4)[Fuc(a1-6)]GlcNAc(b1-4)[Fuc(a1-6)]GlcNAc
In short: as §1

[20] = biological target: Fuc(a1-2)Gal(b1-3)[Fuc(a1-4)]GlcNAc(b1-3)[Fuc(a1-3)[Gal(b1-4)]GlcNAc(b1-6)]Gal(b1-4)Glc
In short: as §1

[21] = biological target: Fuc(a1-2)Gal(b1-3)[Fuc(a1-4)]GlcNAc(b1-3)[Gal(b1-4)GlcNAc(b1-6)]Gal(b1-4)Glc
In short: as §1

[22] = biological target: Fuc(a1-2)Gal(b1-4)Glc
In short: as §1

[23] = biological target: Fuc(a1-2)Gal(b1-4)Glc6S
In short: as §1

[24] = biological target: Fuc(a1-2)Gal(b1-4)GlcNAc
In short: as §1

[25] = biological target: Fuc(a1-2)Gal(b1-4)GlcNAc(b1-2)Man
In short: as §1

[26] = biological target: Fuc(a1-2)Gal(b1-4)GlcNAc(b1-2)Man(a1-3)[Fuc(a1-2)Gal(b1-4)GlcNAc(b1-2)Man(a1-6)]Man(b1-4)GlcNAc(b1-4)GlcNAc
In short: as §1

[27] = biological target: Fuc(a1-2)Gal(b1-4)GlcNAc(b1-2)Man(a1-3)[Fuc(a1-2)Gal(b1-4)GlcNAc(b1-2)Man(a1-6)]Man(b1-4)GlcNAc(b1-4)[Fuc(a1-6)]GlcNAc
In short: as §1

[28] = biological target: Fuc(a1-2)Gal(b1-4)GlcNAc(b1-2)[Fuc(a1-2)Gal(b1-4)GlcNAc(b1-4)]Man(a1-3)[Fuc(a1-2)Gal(b1-4)GlcNAc(b1-2)Man(a1-6)]Man(b1-4)GlcNAc(b1-4)GlcNAc
In short: as §1

[29] = biological target: Fuc(a1-2)Gal(b1-4)GlcNAc(b1-3)Gal(b1-4)GlcNAc
In short: as §1

[30] = biological target: Fuc(a1-2)Gal(b1-4)GlcNAc(b1-3)Gal(b1-4)GlcNAc(b1-2)Man(a1-3)[Fuc(a1-2)Gal(b1-4)GlcNAc(b1-3)Gal(b1-4)GlcNAc(b1-2)Man(a1-6)]Man(b1-4)GlcNAc(b1-4)GlcNAc
In short: as §1

B1: Agalectin (Anopheles gambiae) (protein)
chain: MSNRPFTAKFPRYPENGDEVFIRGKLKDDAKSFSVNFCLPRPAQVAEHQTPPYIALHFKTIYDERDDTSRVVLNWKNLQWQQEEVLDNYWHVDRSQTFRVVFRLHEDCIKVFVNSVDHPPDYQFPVQLPLDQIESIELWDDVEHVEEISFRYDNGNSY
- glycan array binding signal (z-score) [1]: 0.575
- glycan array binding signal (z-score) [2]: -0.505
- glycan array binding signal (z-score) [3]: -0.443
- glycan array binding signal (z-score) [4]: -0.754
- glycan array binding signal (z-score) [5]: -0.269
- glycan array binding signal (z-score) [6]: -0.706
- glycan array binding signal (z-score) [7]: 0.019
- glycan array binding signal (z-score) [8]: -0.564
- glycan array binding signal (z-score) [9]: 5.71
- glycan array binding signal (z-score) [10]: -0.193
- glycan array binding signal (z-score) [11]: -0.53
- glycan array binding signal (z-score) [12]: -1.03
- glycan array binding signal (z-score) [13]: 4.19
- glycan array binding signal (z-score) [14]: -1.57
- glycan array binding signal (z-score) [15]: -1.7
- glycan array binding signal (z-score) [16]: -0.814
- glycan array binding signal (z-score) [17]: -0.396
- glycan array binding signal (z-score) [18]: 1.4
- glycan array binding signal (z-score) [19]: 0.179
- glycan array binding signal (z-score) [20]: 0.133
- glycan array binding signal (z-score) [21]: -0.766
- glycan array binding signal (z-score) [22]: -0.434
- glycan array binding signal (z-score) [23]: 1.12
- glycan array binding signal (z-score) [24]: -0.348
- glycan array binding signal (z-score) [25]: -1.22
- glycan array binding signal (z-score) [26]: 0.164
- glycan array binding signal (z-score) [27]: 1.1
- glycan array binding signal (z-score) [28]: 0.64
- glycan array binding signal (z-score) [29]: -0.366
- glycan array binding signal (z-score) [30]: -0.148

Reference: the supplement of paper PMC8728848
